These are yes or no findings as the source states them, for the method shown. In cells and extracts the contact can be indirect.
Legend:
[1] = biological target: tumor suppressor p53 (human (endogenous in MESO924, MESO257, MESO428)) (UniProt P04637); experiment: co-IP; 1 mg lysate of MESO924, MESO257 or MESO428 (1% NP-40 lysis buffer), preabsorbed with protein G beads; 2 ug p53 or AXL antibody 2 h at 4 °C, sepharose-protein G overnight at 4 °C; AXL and p53 immunoblotting; normal mouse IgG as control IP
[2] = biological target: AXL receptor tyrosine kinase (human (endogenous in MESO924, MESO257, MESO428)) (UniProt P30530); experiment: as above

AXL receptor tyrosine kinase (from UniProt P30530-2 26-885)
binding [1]: no binding

tumor suppressor p53 (from UniProt P04637-1 1-393)
binding [2]: no binding
